From the supplement of paper PMC6078165

Test system: MDAMB231
Assay: relative JC-1 red fluorescence (viability) vs pre-drug, coculture with fibroblast (fraction); higher = more viable cancer cells
Protocol: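 JC-1 labelled TNBC cells cocultured 1:1 (1,500 cells each) with CellTrace Violet stained primary or stromal fibroblasts in 384-well plates in FluoroBrite medium, treated with one of 42 anticancer drugs at 0.1, 1, 10 or 100 uM. JC-1 red fluorescence (mitochondrial integrity in cancer cells only) was read by plate reader every 8 h for 72 h. Values are normalised to each well's pre-drug value. The stock of one drug was tenfold lower, so its dose labels may be too high.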

CN(Cc1cnc2nc(N)nc(N)c2n1)c1ccc(C(=O)N[C@@H](CCC(=O)O)C(=O)O)cc1 [Methotrexate]
relative JC-1 red fluorescence
Conditions	8 h	16 h	24 h	32 h	40 h	48 h	56 h	64 h	72 h
10 µM, coculture fibroblast: C12385	0.756	0.685	0.644	0.594	0.537	0.516	0.487	0.489	0.482
10 µM, coculture fibroblast: H6013	0.8879	0.8061	0.76	0.731	0.694	0.679	0.657	0.64	0.603
10 µM, coculture fibroblast: H6019	0.73	0.634	0.594	0.5557	0.511	0.507	0.474	0.484	0.464
10 µM, coculture fibroblast: H6076	0.905	0.85	0.84	0.84	0.829	0.813	0.797	0.796	0.804
10 µM, coculture fibroblast: H6231	0.931	0.842	0.7765	0.745	0.704	0.676	0.642	0.63	0.629
10 µM, coculture fibroblast: HADF	0.897	0.811	0.7616	0.719	0.691	0.651	0.626	0.614	0.576
10 µM, coculture fibroblast: HCFa	0.888	0.822	0.78	0.739	0.697	0.666	0.635	0.612	0.577
10 µM, coculture fibroblast: HCPF	0.8733	0.787	0.7	0.661	0.608	0.569	0.529	0.505	0.489
10 µM, coculture fibroblast: HHSteC	0.925	0.861	0.818	0.774	0.731	0.703	0.662	0.653	0.614
10 µM, coculture fibroblast: HMF	0.896	0.818	0.755	0.712	0.681	0.645	0.605	0.585	0.569
10 µM, coculture fibroblast: HPFa	0.9429	0.873	0.8135	0.764	0.751	0.726	0.685	0.672	0.64
10 µM, coculture fibroblast: HUF	0.838	0.7024	0.756	0.62	0.554	0.538	0.493	0.502	0.496
10 µM, coculture fibroblast: Hs5	0.834	0.761	0.729	0.698	0.6726	0.628	0.626	0.62217	0.6222
10 µM, coculture fibroblast: Hs27A	0.904	0.862	0.83	0.808	0.77	0.712	0.733	0.718	0.677
10 µM, coculture fibroblast: Hs343T	0.8736	0.776	0.694	0.641	0.576	0.52	0.467	0.444	0.414
10 µM, coculture fibroblast: WS1	0.7668	0.6784	0.672	0.584	0.532	0.514	0.468	0.47	0.461
100 µM, coculture fibroblast: C12385	0.755	0.735	0.695	0.682	0.595	0.56	0.542	0.548	0.546
100 µM, coculture fibroblast: H6013	0.878	0.821	0.769	0.741	0.695	0.679	0.657	0.628	0.582
100 µM, coculture fibroblast: H6019	0.726	0.662	0.6607	0.5965	0.5579	0.5559	0.52149	0.532	0.511
100 µM, coculture fibroblast: H6076	0.8832	0.819	0.802	0.783	0.751	0.721	0.709	0.696	0.692
100 µM, coculture fibroblast: H6231	0.92	0.824	0.7221	0.67162	0.61	0.583	0.547	0.533	0.503
100 µM, coculture fibroblast: HADF	0.8777	0.8418	0.7853	0.734	0.702	0.662	0.636	0.623	0.5732
100 µM, coculture fibroblast: HCFa	0.883	0.829	0.7754	0.7312	0.681	0.64	0.6182	0.592	0.556
100 µM, coculture fibroblast: HCPF	0.845	0.754	0.678	0.643	0.574	0.534	0.51	0.478	0.462
100 µM, coculture fibroblast: HHSteC	0.90683	0.866	0.817	0.7626	0.723	0.6885	0.6559	0.6346	0.59
100 µM, coculture fibroblast: HMF	0.883	0.822	0.757	0.718	0.667	0.624	0.594	0.567	0.548
100 µM, coculture fibroblast: HPFa	0.9403	0.885	0.83	0.777	0.759	0.738	0.699	0.687	0.648
100 µM, coculture fibroblast: HUF	0.8574	0.73	0.747	0.617	0.542	0.524	0.486	0.485	0.471
100 µM, coculture fibroblast: Hs5	0.872	0.785	0.721	0.682	0.642	0.598	0.58	0.563	0.553
100 µM, coculture fibroblast: Hs27A	0.8946	0.822	0.78	0.749	0.704	0.631	0.657	0.65	0.611
100 µM, coculture fibroblast: Hs343T	0.881	0.769	0.701	0.655	0.583	0.536	0.501	0.476	0.449
100 µM, coculture fibroblast: WS1	0.754	0.71	0.608	0.584	0.536	0.505	0.469	0.467	0.448

The reference is the same well before dosing, and untreated signal decays as well.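 Fibroblast labels denote human fibroblasts, mainly primary ones from uterus (C12385, HUF), lung (H6013), bone (Hs27A), adrenal (HADF) and skin (WS1), plus mammary HMF and breast cancer-associated Hs343T. Cancer cells are basal-like or mesenchymal-like triple-negative breast cancer lines. A hit is a response shift exceeding 3x replicate standard deviation. The tissue of the other fibroblasts is not given here.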
